{"source": "PubChem BioAssay AID504834", "about": "(National Center for Advancing Translational Sciences (NCATS), 2011)", "note": "About 22,000 (6.9%) of roughly 320,000 compounds were called active. This list was built around the results that the source calls inconclusive (neither active nor inactive); the mix of calls is not that of the screen. Calls follow the shape of the dose curve; as a rule, active = well fitted inhibition curve with a large enough effect; inconclusive = small, poorly fitted or top-dose-only effect, or another doubt; inactive = no such curve, though single readings can be large or run the other way. Where the call is inconclusive, the potency comes from a doubtful curve fit. Potency is read from the fitted curve at half-maximal effect.", "data": [{"test": "Primary qHTS for delayed death inhibitors of the malarial parasite plastid, 96 hour incubation", "details": "P. falciparum luciferase reporter growth; series mostly up to 28.7 µM", "method_in_brief": "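Cell-based qHTS: luciferase-tagged P. falciparum in erythrocytes (2% hematocrit, 0.05% parasitemia final) incubated with compounds for 96 hours, 37 C, 5% CO2; luciferase detection reagent then added and luminescence measured.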", "values": [{"smiles": "CN1CCC(=NNC(=O)c2cc(-c3ccc(Cl)cc3)n[nH]2)CC1", "Potency": "inactive"}, {"smiles": "O=C(NC(Cc1ccccc1)C(=O)O)/C(=C\\c1ccccc1)NC(=O)c1ccc(Br)o1", "note": "(stereo unspecified)", "Potency": "inactive"}, {"smiles": "CCc1ccccc1NC(=O)CN(C)C(=O)CSc1nc2cc(Cl)ccc2s1", "Potency": "inconclusive: 2.08 µM [inhibitor, partial curve, poor fit]"}, {"smiles": "Cc1c(OCC(=O)NC2CCN(Cc3ccccc3)CC2)ccc2c3c(c(=O)oc12)CCC3", "Potency": "inconclusive: 18.5 µM [inhibitor, single point]"}, {"smiles": "CC1CCCCN1Cc1ccc(N)cc1", "note": "(stereo unspecified)", "Potency": "active: 0.104 µM"}, {"smiles": "Cc1ccc(OC(=O)CCc2c(C)nc3ncnn3c2C)cc1", "Potency": "inactive"}, {"smiles": "CCN(CC)S(=O)(=O)c1ccc(Nc2ccc(-c3ccc4c(c3)OCCO4)nn2)cc1", "Potency": "inconclusive: 11.7 µM [inhibitor, single point]"}, {"smiles": "Cc1c(N(C(=O)c2ccccn2)C2(C(=O)NC3CCCC3)CCCCC2)c(=O)n(-c2ccccc2)n1C", "Potency": "inconclusive: 11.7 µM [inhibitor, partial curve, poor fit]"}, {"smiles": "CCn1c(=S)sc2c(=O)n(CC(=O)Nc3cccc(Cl)c3)c(C)nc21", "Potency": "inconclusive: 18.5 µM [inhibitor, single point]"}, {"smiles": "COc1ccc(-n2nc(C(=O)NCC(=O)NCc3ccccc3OC)c3ccccc3c2=O)cc1", "Potency": "inconclusive: 3.29 µM [inhibitor, partial curve, poor fit]"}, {"smiles": "Cc1cc(C)cc(NC(=O)C2C3C=CC4(O3)C2C(=O)N(CCN2CCCCC2)C4C(=O)NC2CCCCC2)c1", "note": "(stereo unspecified)", "Potency": "active: 10.4 µM"}, {"smiles": "Cc1ncoc1C(=O)Nc1cccc(Cl)c1C", "Potency": "inactive"}, {"smiles": "COc1ccccc1Cc1nc(-c2ccc(C)cc2)no1", "Potency": "inconclusive: 2.33 µM [inhibitor, partial curve]"}, {"smiles": "Clc1cccc(OCCCCCN2CCOCC2)c1", "Potency": "inconclusive: 11.7 µM [inhibitor, single point]"}, {"smiles": "C=CCOC(=O)C1=C(C)Nc2ncnn2C1c1cccs1", "note": "(stereo unspecified)", "Potency": "inconclusive: 18.5 µM [inhibitor, single point]"}, {"smiles": "COc1ccc2nc(NC(=O)C3CCCO3)sc2c1", "note": "(stereo unspecified)", "Potency": "inconclusive: 1.17 µM [inhibitor, partial curve, poor fit]"}, {"smiles": "CC(C)(C)C1CCc2c(C(=O)NNC(=O)CCC(=O)O)csc2C1", "note": "(stereo unspecified)", "Potency": "inactive"}, {"smiles": "CCC1CCCCN1S(=O)(=O)c1ccccc1[N+](=O)[O-]", "note": "(stereo unspecified)", "Potency": "inconclusive: 0.657 µM [inhibitor, full curve, poor fit]"}, {"smiles": "COc1ccc(OCC(=O)O/N=C(\\N)c2ccc(OC)cc2)cc1", "Potency": "inactive"}, {"smiles": "CCOC(=O)c1c(NC(=S)NC)sc2c1CC(C)(C)SC2", "Potency": "inactive"}, {"smiles": "Cc1ccc2c(c1)N(CC(=O)N1CCc3ccccc3C1)C(=O)CO2", "Potency": "inconclusive: 5.86 µM [inhibitor, partial curve, poor fit]"}, {"smiles": "Cc1cc(C)cc(N)c1", "Potency": "inconclusive: 2.33 µM [inhibitor, partial curve, poor fit]"}, {"smiles": "CC(/C=N\\NC(=O)CN1CCN(S(=O)(=O)c2ccc(C)cc2)CC1)=C\\c1ccccc1", "Potency": "inconclusive: 9.28 µM [inhibitor, single point]"}, {"smiles": "CCOc1cc(/C=N/NC(=O)c2ccc(N(C)S(=O)(=O)c3ccccc3)cc2)ccc1OC", "Potency": "inactive"}, {"smiles": "O=c1[nH]ncc(NCCCO)c1Cl", "Potency": "inactive"}, {"smiles": "CCCCOP(=O)(c1ccc(N(C)C)cc1)C(O)c1ccccc1F", "note": "(stereo unspecified)", "Potency": "inconclusive: 8.28 µM [inhibitor, partial curve, poor fit]"}, {"smiles": "N/C(=N\\c1nc2ccccc2o1)NC(=O)c1ccccc1NC(=O)c1ccccc1", "Potency": "inactive"}, {"smiles": "Cc1ccc(CNC(=O)CCC(=O)Nc2nnc(C)s2)cc1", "Potency": "inactive"}, {"smiles": "CCCC(CCC)=NNC(=O)CN(Cc1ccccc1)S(=O)(=O)c1ccccc1", "Potency": "inactive"}, {"smiles": "CN(CC(=O)Nc1cc(Cl)ccc1C#N)C1CCS(=O)(=O)C1", "note": "(stereo unspecified)", "Potency": "inconclusive: 8.28 µM [inhibitor, single point]"}, {"smiles": "CCc1ncc(CN2CCCC(C(=O)Nc3cccc(-c4ccc(F)cc4)c3)C2)cn1", "note": "(stereo unspecified)", "Potency": "inconclusive: 18.5 µM [inhibitor, single point]"}, {"smiles": "CC(C)CC(=O)N1CCN(Cc2ccc(Br)cc2)CC1", "Potency": "inconclusive: 16.5 µM [inhibitor, single point]"}, {"smiles": "COc1ccccc1/C=C(/C(=O)OCC(=O)N(C)Cc1ccccc1)c1ccccc1", "Potency": "inactive"}, {"smiles": "CCOC(=O)c1cc(-c2cccc([N+](=O)[O-])c2)n[nH]1", "Potency": "inactive"}, {"smiles": "O=C(CSc1nnc(-c2cc(-c3cccs3)nc3ccccc23)o1)NC1CCCCC1", "Potency": "inconclusive: 18.5 µM [inhibitor, single point]"}, {"smiles": "CSCCC(NS(=O)(=O)c1ccccc1F)C(=O)N1CC=C(c2ccccc2)CC1", "note": "(stereo unspecified)", "Potency": "inconclusive: 5.22 µM [inhibitor, partial curve]"}, {"smiles": "CCN(CC)CC(O)c1cccn1-c1ccc(CNC(=O)NC(C)C)cc1", "note": "(stereo unspecified)", "Potency": "inactive"}, {"smiles": "CCCN(C#N)c1nc(NCC)nc(NC(C)C)n1", "Potency": "inconclusive: 6.57 µM [inhibitor, partial curve]"}, {"smiles": "CC(C)OCCCNC(=O)CN1CCN(Cc2ccc(Cl)cc2)C1=O", "Potency": "inconclusive: 10.4 µM [inhibitor, single point]"}, {"smiles": "COc1ccc(NC(=O)CSc2nncn2N)c(OC)c1", "Potency": "inconclusive: 18.5 µM [inhibitor, single point]"}, {"smiles": "S=C(NCc1ccc2c(c1)OCO2)Nc1ccc(-c2nc3ccccc3[nH]2)cc1", "Potency": "active: 5.22 µM"}, {"smiles": "Cc1ccc2nc(-c3ccccn3)cc(C(=O)NC(C)C(C)(C)C)c2c1", "note": "(stereo unspecified)", "Potency": "inconclusive: 18.5 µM [inhibitor, single point]"}, {"smiles": "O=C(/C=C/c1cccs1)N1CCC2(CC1)Oc1ccc(F)cc1C(=O)C21CC(c2ccccc2)=NO1", "note": "(stereo unspecified)", "Potency": "active: 9.28 µM"}, {"smiles": "COc1ccc(-c2cc(C(F)(F)F)nc(S(C)(=O)=O)n2)cc1OC", "Potency": "inconclusive: 0.37 µM [inhibitor, full curve, poor fit]"}, {"smiles": "C/C(=N/N1CCN(c2ccccc2)CC1)c1cccc([N+](=O)[O-])c1", "Potency": "inactive"}, {"smiles": "CCCN1C(=S)SC(C)(C)C1/[N+]([O-])=C/c1ccc(S(=O)(=O)NC)cc1", "note": "(stereo unspecified)", "Potency": "inconclusive: 0.0029 µM [inhibitor, full curve, poor fit]"}]}]}
